Experimental data taken from the M2OR odorant receptor database.
Numbering of substitutions follows the chain as printed. This is a selection; strong and weak results do not stand in their true shares. The calls were merged from several studies; some rest on single wells. The list shows a part of the results.

Chains of the proteins cited; added tags and fusions are not shown. Chains listed by the source or under a name are the forms on record and can include a tag or linker.
OR7D4, as listed by the source: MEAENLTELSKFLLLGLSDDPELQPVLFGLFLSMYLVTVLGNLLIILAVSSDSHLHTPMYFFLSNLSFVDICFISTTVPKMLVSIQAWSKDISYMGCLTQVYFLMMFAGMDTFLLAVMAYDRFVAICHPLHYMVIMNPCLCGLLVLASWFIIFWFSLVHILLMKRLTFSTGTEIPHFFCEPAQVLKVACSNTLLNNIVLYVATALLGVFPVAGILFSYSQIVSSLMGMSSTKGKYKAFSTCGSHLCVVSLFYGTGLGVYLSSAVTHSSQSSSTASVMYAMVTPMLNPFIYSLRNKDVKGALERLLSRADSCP

What was measured:
Conditions in all cases: stereoisomer not certain
[1] = tested on: T1, OR6S1
T1 sequence (whole entry): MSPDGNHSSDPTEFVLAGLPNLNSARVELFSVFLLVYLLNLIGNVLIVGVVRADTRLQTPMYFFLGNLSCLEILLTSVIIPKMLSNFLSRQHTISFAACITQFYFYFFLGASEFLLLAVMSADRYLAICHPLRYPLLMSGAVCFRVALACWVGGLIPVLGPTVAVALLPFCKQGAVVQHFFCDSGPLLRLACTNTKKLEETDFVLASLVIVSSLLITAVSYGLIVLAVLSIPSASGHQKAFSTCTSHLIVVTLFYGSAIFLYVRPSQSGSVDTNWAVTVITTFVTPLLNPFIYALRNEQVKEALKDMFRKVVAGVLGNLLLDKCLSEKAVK
Method in brief: (§1)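 Each receptor–molecule pair is labelled responsive or non-responsive (inactive) according to whether the original authors judged the measured signal statistically different from baseline. The data were taken from the main text and supplementary material of published papers and checked for typos and inconsistencies. Assay methods differed by source, with transient luciferase assays in mammalian cell lines being common.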

[2] = tested on: T2, OR6T1
T2 sequence (whole entry): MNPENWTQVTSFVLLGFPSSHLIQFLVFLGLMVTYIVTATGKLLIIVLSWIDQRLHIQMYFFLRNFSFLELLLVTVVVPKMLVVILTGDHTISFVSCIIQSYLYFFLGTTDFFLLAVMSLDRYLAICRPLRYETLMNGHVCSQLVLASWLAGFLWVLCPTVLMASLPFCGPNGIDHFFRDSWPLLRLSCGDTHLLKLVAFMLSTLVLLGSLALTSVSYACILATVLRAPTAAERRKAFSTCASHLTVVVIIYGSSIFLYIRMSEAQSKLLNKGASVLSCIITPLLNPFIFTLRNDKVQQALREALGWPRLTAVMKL
Method in brief: as §1

[3] = target: T3, OR6V1 (Homo sapiens) (UniProt Q8N148)
T3 sequence (whole entry): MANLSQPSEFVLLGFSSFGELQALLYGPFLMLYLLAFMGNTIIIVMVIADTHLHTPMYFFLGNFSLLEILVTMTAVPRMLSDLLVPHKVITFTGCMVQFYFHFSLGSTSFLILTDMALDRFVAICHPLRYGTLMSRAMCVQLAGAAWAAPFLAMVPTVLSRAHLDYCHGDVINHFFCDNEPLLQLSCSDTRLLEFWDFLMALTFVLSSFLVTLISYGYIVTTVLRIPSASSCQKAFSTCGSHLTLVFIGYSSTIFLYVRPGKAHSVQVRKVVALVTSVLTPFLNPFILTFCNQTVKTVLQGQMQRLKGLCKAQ
Method in brief: as §1

[4] = target: T4, OR6X1 (Homo sapiens) (UniProt Q8NH79)
T4 sequence (whole entry): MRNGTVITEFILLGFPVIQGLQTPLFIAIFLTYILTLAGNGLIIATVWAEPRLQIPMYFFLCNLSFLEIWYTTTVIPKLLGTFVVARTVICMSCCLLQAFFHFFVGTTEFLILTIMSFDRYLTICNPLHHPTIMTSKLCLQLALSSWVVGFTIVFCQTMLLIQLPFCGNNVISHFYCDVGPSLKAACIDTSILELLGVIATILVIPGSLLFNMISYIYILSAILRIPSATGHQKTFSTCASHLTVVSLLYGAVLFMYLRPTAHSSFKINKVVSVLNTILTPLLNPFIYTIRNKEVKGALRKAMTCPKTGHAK
Method in brief: as §1

[5] = tested on: T5, OR6Y1
T5 sequence (whole entry): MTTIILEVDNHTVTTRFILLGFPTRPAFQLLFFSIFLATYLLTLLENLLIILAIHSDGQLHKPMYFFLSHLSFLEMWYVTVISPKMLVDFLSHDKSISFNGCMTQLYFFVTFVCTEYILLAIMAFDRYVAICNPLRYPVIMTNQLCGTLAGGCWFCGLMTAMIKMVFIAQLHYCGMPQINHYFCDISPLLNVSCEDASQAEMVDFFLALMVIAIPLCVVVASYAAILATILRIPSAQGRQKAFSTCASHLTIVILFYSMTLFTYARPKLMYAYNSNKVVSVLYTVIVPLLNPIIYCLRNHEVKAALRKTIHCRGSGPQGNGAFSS
Method in brief: as §1

[6] = target: T6, OR7A10 (Homo sapiens) (UniProt O76100)
T6 sequence (whole entry): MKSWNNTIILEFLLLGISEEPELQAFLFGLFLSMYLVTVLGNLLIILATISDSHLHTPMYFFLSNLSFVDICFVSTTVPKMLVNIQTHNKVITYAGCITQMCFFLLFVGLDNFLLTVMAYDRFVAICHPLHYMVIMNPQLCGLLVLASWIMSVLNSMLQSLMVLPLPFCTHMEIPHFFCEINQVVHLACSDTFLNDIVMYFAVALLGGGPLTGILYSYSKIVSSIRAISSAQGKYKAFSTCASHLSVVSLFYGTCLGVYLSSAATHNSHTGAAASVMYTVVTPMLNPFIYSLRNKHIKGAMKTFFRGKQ
Method in brief: as §1

[7] = target: T7, OR7A17 (Homo sapiens) (UniProt O14581)
T7 sequence (whole entry): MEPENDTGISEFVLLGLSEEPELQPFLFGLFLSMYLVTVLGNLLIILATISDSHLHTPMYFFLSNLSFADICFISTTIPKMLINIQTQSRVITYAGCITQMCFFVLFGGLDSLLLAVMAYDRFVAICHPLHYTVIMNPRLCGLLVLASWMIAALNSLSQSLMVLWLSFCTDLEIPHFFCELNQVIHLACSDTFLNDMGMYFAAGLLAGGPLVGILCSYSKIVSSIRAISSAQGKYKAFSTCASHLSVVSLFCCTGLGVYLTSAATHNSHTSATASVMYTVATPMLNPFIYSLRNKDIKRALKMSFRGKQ
Method in brief: as §1

[8] = target: T8, OR7A5 (Homo sapiens) (UniProt Q15622)
T8 sequence (whole entry): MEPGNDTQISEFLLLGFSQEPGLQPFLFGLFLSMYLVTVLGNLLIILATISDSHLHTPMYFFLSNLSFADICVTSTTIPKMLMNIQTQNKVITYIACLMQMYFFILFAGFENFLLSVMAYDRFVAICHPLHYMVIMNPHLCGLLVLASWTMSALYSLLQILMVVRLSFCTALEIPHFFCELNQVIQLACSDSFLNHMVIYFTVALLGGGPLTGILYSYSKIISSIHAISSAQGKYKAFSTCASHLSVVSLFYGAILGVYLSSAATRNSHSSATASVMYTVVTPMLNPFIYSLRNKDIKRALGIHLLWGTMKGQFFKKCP
Method in brief: as §1

[9] = tested on: T9, OR7C1
T9 sequence (whole entry): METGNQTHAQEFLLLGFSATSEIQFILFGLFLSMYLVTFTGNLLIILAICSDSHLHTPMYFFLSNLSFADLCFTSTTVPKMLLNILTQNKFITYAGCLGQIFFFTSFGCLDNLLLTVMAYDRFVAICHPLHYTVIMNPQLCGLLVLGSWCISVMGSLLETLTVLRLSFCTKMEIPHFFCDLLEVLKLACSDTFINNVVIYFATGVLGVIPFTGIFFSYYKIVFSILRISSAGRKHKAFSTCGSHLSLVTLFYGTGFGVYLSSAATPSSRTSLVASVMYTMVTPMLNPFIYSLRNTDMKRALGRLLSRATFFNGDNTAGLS
Method in brief: as §1

[10] = tested on: T10, OR7C2
T10 sequence (whole entry): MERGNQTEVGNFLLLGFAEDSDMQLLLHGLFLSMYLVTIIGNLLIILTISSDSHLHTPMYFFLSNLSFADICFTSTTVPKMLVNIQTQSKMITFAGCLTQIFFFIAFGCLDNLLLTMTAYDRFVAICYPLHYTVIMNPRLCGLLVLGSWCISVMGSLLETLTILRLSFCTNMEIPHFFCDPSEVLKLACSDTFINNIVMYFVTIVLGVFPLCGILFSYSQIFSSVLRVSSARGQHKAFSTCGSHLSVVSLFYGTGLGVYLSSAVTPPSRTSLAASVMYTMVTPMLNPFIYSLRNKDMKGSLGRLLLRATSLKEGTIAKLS
Method in brief: as §1

[11] = tested on: T11, OR7D2
T11 sequence (whole entry): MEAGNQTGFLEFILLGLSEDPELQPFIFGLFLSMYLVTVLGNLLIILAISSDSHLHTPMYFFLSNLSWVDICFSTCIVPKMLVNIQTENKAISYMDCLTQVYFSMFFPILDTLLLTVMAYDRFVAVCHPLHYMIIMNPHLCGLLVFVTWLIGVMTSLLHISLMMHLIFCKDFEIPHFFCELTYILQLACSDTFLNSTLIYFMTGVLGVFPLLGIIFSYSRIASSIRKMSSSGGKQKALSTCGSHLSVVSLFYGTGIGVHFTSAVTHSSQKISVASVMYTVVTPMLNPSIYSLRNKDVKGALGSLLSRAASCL
Method in brief: as §1

[12] = target: T12, OR7D4 (Homo sapiens) (UniProt Q8NG98)
T12 sequence (whole entry): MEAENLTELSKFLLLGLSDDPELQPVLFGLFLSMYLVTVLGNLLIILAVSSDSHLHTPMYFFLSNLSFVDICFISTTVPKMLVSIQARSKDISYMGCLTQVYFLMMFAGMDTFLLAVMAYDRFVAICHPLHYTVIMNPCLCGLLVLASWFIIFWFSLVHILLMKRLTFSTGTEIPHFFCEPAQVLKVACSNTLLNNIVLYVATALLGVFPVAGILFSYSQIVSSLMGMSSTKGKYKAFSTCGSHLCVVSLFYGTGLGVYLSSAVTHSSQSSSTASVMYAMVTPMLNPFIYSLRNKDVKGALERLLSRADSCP
Method in brief: as §1

[13] = tested on: T13, OR7D4
T13 sequence (whole entry): T12 sequence (whole entry) with R88W, T133M
Method in brief: as §1

[14] = target: T14, OR7G1 (Homo sapiens) (UniProt Q8NGA0)
T14 sequence (whole entry): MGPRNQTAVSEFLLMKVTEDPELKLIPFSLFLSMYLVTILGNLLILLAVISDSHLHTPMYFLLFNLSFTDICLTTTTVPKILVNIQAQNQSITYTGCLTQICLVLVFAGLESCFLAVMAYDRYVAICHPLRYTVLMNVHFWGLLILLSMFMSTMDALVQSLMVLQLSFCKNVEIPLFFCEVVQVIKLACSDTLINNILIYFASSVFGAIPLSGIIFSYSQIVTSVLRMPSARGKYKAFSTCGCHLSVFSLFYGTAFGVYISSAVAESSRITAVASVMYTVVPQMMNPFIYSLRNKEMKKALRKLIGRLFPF
Method in brief: as §1

[15] = target: T15, OR7G2 (Homo sapiens) (UniProt Q8NG99)
T15 sequence (whole entry): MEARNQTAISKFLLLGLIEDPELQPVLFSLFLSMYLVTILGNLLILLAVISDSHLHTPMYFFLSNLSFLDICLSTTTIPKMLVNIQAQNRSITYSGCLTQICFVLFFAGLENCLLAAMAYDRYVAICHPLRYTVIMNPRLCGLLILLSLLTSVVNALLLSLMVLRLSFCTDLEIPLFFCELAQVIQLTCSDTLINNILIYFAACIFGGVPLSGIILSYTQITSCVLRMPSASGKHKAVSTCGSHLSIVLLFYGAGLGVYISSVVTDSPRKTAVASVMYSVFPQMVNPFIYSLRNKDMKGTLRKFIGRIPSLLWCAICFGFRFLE
Method in brief: as §1

[16] = tested on: T16, OR7G2
T16 sequence (whole entry): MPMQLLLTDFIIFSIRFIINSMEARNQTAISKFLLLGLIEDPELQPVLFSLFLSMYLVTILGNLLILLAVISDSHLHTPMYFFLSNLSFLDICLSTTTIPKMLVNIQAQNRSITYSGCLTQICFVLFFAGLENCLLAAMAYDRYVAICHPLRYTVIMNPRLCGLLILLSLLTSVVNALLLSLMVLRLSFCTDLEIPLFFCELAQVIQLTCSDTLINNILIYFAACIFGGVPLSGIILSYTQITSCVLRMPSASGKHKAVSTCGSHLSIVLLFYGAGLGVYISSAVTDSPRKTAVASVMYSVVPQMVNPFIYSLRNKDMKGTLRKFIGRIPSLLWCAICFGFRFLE
Method in brief: as §1

[17] = target: T17, OR7G3 (Homo sapiens) (UniProt Q8NG95)
T17 sequence (whole entry): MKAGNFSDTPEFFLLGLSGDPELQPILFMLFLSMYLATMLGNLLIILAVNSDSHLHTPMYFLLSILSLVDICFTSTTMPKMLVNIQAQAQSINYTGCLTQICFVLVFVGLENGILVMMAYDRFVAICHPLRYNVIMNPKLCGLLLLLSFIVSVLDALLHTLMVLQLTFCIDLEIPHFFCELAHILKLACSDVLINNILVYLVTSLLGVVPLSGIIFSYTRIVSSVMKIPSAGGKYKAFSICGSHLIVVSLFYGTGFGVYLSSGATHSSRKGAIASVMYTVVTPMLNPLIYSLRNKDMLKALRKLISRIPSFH
Method in brief: as §1

[18] = tested on: T18, OR8A1
T18 sequence (whole entry): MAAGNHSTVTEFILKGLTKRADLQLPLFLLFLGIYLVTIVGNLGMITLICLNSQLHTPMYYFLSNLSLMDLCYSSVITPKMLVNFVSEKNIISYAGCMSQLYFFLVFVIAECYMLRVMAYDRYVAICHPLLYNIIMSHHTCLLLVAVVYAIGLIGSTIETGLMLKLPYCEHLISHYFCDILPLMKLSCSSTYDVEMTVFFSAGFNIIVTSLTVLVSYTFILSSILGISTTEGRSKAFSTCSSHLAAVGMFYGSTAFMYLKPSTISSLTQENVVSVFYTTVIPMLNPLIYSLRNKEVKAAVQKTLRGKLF
Method in brief: as §1

[19] = target: T19, OR8B12 (Homo sapiens) (UniProt Q8NGG6)
T19 sequence (whole entry): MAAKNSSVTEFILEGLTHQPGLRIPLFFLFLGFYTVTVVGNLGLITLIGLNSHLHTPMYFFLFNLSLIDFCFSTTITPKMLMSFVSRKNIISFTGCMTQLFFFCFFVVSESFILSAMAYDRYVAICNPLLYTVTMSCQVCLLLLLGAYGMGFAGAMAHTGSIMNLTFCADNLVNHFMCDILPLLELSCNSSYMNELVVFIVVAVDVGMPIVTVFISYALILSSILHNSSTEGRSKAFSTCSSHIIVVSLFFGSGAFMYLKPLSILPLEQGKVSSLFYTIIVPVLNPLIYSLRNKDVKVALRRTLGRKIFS
Method in brief: as §1

[20] = target: T20, OR8B2 (Homo sapiens) (UniProt Q96RD0)
T20 sequence (whole entry): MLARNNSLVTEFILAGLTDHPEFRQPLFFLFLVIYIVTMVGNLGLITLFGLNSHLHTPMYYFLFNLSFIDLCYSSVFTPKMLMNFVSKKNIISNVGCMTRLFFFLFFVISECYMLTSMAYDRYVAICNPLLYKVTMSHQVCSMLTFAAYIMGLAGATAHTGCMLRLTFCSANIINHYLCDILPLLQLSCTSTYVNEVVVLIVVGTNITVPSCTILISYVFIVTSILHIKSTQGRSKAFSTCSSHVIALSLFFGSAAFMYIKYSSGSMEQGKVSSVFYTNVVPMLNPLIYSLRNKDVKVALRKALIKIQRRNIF
Method in brief: as §1

Measured: odorant receptor agonist call;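 further: active if original authors judged signal statistically different from baseline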

CCC(C)=O
inactive: all assays above
